Patent US9261497B2, “Method of treating cancer with modulators of SCFSkp2” (New York University, priority 2012, dated 2016)
Some of these results come from one statement about several compounds together. At least one structure is not confirmed: it was looked up by name or label, or the drawing left a doubt.

Test system: p27 in 501 Mel cells
Assay: Cycloheximide p27 half-life in 501 Mel cells
Format: cell-based, human
Details: pretreated 16 hours with 10 μM inhibitor, vehicle half-life 1 hour
Experimental: To assess the mechanism of p27 induction, cycloheximide half-lives were analyzed in 501 Mel cell lines pretreated with each inhibitor (10 μM) or 0.1% DMSO (vehicle). p27 degraded rapidly with a half-life of 1 hour with vehicle, and this rate was slowed by the inhibitors (FIG. 4C). […] Protein levels of Skp2 and Skp1 remained constant.
Whole cell extracts were prepared and immunoblotted as previously described Dorrello et al., “S6K1- and betaTRCP-mediated Degradation of PDCD4 Promotes Protein Translation and Cell Growth,” Science 314:467-471 (2006), which is hereby incorporated by reference in its entirety. For knockdown of Skp2 or p27, shRNAs were induced with 2 ng/ml doxycycline for 48 hours, with the last 16 hours co-treated with 0.1% Vehicle or 10 μM inhibitors as indicated. For cycloheximide chase, cells were pretreated 16 h with 0.1% Vehicle or 10 μM inhibitors, followed by 20 ng/ml cycloheximide (Sigma) and whole cell extracts collected for each time point. 20 ng/ml cycloheximide (Sigma) was added to each plate and whole cell extract was collected for each time point. Scanning densitometry was performed on immunoblots using Image J software. For cell cycle analysis, cells were treated with 0.1% Vehicle or 10 μM inhibitors for 16 h. […] Signal was detected using the Becton Dickson LSRII flow cytometer and cell cycle profiles were analyzed with FloJo.

SMILES: COC(=O)C1=C(C)N(c2ccc(Br)cc2)C(=O)C1=Cc1ccccc1O [Compound C2]
- p27 half-life: greater than 5 hours
